Like-named read-outs stand apart in the source and are kept apart here. These are yes or no findings as the source states them, for the method shown. For some of these results: Binding seen in cells or lysates may run through a third protein. Some results given as binding are weak or reduced against the parent protein; the word gives no strength.
How the values were obtained:
[1] = biological target: GST-tagged Plk1 from E. coli (UniProt P53350); assay: pull-down; GST pull-down: purified GST or GST-Plk1 as bait, baculovirus expressed His-Tim or His-Rap1 as prey, bound proteins detected by anti-His Western blot; both purified
[2] = biological target: FLAG-tagged Tim protein (human Timeless), wild type (human) (UniProt Q9UNS1); assay: co-IP; FLAG-Tim wt or deletion mutants transfected in 293 cells, FLAG IP, Western blot for endogenous Plk1
[3] = biological target: FLAG-Tim (Δ1000–1208) (human) (UniProt Q9UNS1); assay: as above
[4] = biological target: endogenous Tim, HCT116 cells (human (endogenous in HCT116)) (UniProt Q9UNS1); assay: co-IP; HCT116 cells synchronised by double thymidine block and release (0, 2, 4, 6, 8 hrs), IP with anti-Tim or control IgG, or reverse IP with anti-Plk1 or anti-Aurora A, Western blot
[5] = biological target: endogenous Tim, Raji nuclear extract (human (endogenous in Raji)) (UniProt Q9UNS1); assay: co-IP; asynchronous Raji nuclear extracts, IP with anti-Tim or control IgG, treated with 100 µg/ml DNase I for 30 min or buffer, extensive washing, Western blot
[6] = biological target: endogenous Plk1, HCT116 cells (human (endogenous in HCT116)) (UniProt P53350); assay: co-IP; HCT116 cells synchronised by double thymidine block and release (0, 2, 4, 6, 8 hrs), IP with anti-Tim or control IgG, or reverse IP with anti-Plk1 or anti-Aurora A, Western blot
[7] = biological target: T1, endogenous Aurora A, HCT116 cells (human (endogenous in HCT116)) (UniProt O14965); assay: as above
T1 sequence: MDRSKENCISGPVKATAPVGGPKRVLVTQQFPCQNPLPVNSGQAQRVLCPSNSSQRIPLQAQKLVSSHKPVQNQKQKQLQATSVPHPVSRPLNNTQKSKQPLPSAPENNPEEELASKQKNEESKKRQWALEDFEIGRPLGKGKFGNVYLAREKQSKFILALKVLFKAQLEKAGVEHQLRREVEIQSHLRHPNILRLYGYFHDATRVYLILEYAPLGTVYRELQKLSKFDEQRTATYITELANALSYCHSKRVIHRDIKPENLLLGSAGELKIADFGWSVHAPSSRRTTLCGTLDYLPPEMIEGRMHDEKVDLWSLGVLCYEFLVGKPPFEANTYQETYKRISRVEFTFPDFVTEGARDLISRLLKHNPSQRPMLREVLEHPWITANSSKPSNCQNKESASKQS

Chains of the proteins cited; added tags and fusions are not shown. Lines headed by an entry give the natural chain unless they say otherwise; changes in a name come on top. Residues count along the entry.
UniProt P53350: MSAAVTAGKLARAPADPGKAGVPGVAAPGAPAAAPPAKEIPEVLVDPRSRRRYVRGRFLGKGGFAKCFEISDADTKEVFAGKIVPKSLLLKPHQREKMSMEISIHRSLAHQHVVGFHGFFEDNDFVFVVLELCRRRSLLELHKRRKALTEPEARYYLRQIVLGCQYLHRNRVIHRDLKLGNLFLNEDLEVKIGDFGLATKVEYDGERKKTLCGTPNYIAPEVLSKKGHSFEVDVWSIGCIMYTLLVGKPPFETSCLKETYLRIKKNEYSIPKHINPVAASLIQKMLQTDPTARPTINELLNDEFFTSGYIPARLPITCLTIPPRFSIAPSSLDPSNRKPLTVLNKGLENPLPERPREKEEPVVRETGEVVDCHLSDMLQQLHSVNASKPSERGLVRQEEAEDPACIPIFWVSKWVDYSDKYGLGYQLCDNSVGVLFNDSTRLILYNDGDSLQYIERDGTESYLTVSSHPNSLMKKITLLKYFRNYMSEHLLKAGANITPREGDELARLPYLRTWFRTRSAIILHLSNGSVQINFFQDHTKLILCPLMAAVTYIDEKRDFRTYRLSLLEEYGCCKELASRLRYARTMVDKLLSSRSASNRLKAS
UniProt Q9UNS1: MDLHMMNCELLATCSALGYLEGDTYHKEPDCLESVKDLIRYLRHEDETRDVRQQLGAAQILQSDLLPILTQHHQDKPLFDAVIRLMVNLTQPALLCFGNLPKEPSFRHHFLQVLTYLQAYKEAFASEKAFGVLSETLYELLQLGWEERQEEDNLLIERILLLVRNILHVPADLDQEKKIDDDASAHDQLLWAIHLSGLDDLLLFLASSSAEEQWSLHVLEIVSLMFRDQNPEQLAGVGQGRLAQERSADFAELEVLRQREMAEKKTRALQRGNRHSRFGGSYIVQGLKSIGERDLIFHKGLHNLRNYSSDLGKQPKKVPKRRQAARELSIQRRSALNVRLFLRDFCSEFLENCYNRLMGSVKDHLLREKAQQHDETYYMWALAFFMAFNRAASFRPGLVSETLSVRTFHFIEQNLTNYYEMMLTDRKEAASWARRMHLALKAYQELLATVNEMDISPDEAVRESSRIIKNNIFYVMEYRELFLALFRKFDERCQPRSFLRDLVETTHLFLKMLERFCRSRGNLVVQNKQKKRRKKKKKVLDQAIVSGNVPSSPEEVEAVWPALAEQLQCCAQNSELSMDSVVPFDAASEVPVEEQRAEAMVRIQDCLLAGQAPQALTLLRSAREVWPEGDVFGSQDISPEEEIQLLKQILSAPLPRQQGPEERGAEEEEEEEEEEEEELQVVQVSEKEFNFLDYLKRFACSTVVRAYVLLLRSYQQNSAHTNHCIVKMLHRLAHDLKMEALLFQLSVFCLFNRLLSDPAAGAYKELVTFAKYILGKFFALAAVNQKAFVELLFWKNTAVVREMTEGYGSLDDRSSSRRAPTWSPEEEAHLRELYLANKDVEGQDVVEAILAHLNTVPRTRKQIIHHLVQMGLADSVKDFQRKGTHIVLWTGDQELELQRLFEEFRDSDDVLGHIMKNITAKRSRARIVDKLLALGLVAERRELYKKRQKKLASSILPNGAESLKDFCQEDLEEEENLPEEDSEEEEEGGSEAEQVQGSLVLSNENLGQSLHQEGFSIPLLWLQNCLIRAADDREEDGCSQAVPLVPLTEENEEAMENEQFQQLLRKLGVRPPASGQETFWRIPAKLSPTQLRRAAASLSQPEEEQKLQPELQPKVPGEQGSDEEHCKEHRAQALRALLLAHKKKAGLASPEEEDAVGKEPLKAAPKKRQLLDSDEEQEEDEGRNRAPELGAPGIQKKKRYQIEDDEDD
FLAG-Tim (Δ1000–1208): residues 1-999 of Q9UNS1
UniProt Q96GD4: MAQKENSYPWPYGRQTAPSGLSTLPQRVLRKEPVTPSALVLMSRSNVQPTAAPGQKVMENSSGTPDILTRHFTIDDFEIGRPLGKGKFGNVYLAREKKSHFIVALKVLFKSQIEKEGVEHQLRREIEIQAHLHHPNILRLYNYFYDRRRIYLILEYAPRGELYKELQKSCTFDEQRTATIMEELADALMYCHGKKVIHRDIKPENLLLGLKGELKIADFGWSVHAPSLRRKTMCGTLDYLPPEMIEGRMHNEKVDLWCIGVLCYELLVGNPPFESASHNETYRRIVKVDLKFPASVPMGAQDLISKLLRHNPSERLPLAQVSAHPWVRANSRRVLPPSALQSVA

[8] = biological target: endogenous Tim, Raji nuclear extract (human (endogenous in Raji)) (UniProt Q9UNS1); assay: co-IP; asynchronous Raji nuclear extracts, IP with anti-Tim or control IgG, treated with 100 µg/ml DNase I for 30 min or buffer, extensive washing, Western blot; remark: listed apart in the source

“His-tagged Tim protein from baculovirus (from UniProt Q9UNS1 1-1208)” was tested, and the binding [1] was “binds”.

With “Polo-like kinase 1 (Plk1), endogenous in 293 cells (from UniProt P53350 1-603) (enzyme)” the binding [2] was “binds” and the binding [3] was “binds”.

In the case of “endogenous Aurora B, HCT116 cells (from UniProt Q96GD4 1-344) (enzyme)”, the binding [4] is reported as “binds”.

For “endogenous Plk1, HCT116 cells (from UniProt P53350 1-603) (enzyme)”, the binding [4] was “binds”.

For “endogenous Plk1, Raji nuclear extract (from UniProt P53350 1-603) (enzyme)”, the binding [5] was “binds”.

With “endogenous Tim, HCT116 cells (from UniProt Q9UNS1 1-1208)” the binding [6] was “binds” and the binding [7] was “binds”.

B1: endogenous Aurora A, Raji nuclear extract (enzyme, UniProt O14965 1-403)
chain: T1 sequence
B1 was tested, and the binding [8] was “binds”.

B2: endogenous Aurora A, HCT116 cells (enzyme, UniProt O14965 1-403)
chain: T1 sequence
In the case of B2, the binding [4] is reported as “binds”.

— PMC3089618
